Measured values taken from patent US20050074844A1, “Methods for identifying markers of antimicrobial compounds” (priority 2002, published 2005).
Some entries share one result that the patent states for a list of compounds.

Tested on: Bacillus subtilis genes dctP, ysbA, ysbB
Experiment: DNA microarray gene expression of treated versus untreated cultures
Assay type: cell-based
Details: various concentrations, versus untreated culture

Compound	induction of genes dctP, ysbA, ysbB (Table 18)
CC[C@H]1OC(=O)[C@H](C)[C@@H](O[C@H]2C[C@@](C)(OC)[C@@H](O)[C@H](C)O2)[C@H](C)[C@@H](O[C@@H]2O[C@H](C)C[C@H](N(C)C)[C@H]2O)[C@](C)(O)C[C@@H](C)C(=O)[C@H](C)[C@@H](O)[C@]1(C)O [erythromycin]	greater than 3 fold
O=C(N[C@H](CO)[C@H](O)c1ccc([N+](=O)[O-])cc1)C(Cl)Cl [chloramphenicol]	greater than 3 fold
gentamicin	greater than 3 fold
